Source: the supplement of paper PMC11732987, “Enantioselective OTUD7B fragment discovery through chemoproteomics screening and high-throughput optimisation” (Communications Chemistry, 2025)
The list shows a part of the results. The data scatter; read single values as rough.

Protein sequences, listed by entry. Tags and fused reporters are not part of them. Lines headed by an entry give the natural chain unless they say otherwise; changes in a name come on top. Residues count along the entry.
UniProt Q99442: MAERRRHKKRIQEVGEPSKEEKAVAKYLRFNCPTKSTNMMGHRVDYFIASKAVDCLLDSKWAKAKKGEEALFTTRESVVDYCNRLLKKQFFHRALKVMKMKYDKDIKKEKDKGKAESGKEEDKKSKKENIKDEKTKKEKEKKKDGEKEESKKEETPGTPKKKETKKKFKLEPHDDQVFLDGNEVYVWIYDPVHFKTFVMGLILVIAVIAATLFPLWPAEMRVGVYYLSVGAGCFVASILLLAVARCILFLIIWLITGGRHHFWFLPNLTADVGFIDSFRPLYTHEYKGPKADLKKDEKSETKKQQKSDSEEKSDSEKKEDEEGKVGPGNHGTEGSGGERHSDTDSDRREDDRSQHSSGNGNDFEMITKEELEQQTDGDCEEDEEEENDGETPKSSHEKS
UniProt Q9Y6P5: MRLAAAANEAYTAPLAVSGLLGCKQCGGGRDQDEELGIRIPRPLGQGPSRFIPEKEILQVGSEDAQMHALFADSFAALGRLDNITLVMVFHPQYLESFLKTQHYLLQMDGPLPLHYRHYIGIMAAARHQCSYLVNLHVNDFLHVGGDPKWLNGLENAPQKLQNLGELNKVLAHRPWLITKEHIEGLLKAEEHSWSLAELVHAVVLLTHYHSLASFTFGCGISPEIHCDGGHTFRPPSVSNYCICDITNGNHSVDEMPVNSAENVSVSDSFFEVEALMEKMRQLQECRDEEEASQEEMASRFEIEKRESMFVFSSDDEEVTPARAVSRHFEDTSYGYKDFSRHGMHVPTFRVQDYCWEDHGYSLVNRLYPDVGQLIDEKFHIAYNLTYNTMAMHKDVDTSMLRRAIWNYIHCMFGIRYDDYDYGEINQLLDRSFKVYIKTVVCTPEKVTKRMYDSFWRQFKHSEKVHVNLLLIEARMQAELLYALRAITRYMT
UniProt Q96F10: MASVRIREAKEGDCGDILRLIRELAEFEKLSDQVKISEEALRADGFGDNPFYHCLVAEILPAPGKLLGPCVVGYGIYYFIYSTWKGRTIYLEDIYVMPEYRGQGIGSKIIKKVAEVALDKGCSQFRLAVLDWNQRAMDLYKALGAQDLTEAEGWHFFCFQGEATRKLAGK
UniProt O00560, 230-250: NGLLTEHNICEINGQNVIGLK
UniProt Q9BQF6: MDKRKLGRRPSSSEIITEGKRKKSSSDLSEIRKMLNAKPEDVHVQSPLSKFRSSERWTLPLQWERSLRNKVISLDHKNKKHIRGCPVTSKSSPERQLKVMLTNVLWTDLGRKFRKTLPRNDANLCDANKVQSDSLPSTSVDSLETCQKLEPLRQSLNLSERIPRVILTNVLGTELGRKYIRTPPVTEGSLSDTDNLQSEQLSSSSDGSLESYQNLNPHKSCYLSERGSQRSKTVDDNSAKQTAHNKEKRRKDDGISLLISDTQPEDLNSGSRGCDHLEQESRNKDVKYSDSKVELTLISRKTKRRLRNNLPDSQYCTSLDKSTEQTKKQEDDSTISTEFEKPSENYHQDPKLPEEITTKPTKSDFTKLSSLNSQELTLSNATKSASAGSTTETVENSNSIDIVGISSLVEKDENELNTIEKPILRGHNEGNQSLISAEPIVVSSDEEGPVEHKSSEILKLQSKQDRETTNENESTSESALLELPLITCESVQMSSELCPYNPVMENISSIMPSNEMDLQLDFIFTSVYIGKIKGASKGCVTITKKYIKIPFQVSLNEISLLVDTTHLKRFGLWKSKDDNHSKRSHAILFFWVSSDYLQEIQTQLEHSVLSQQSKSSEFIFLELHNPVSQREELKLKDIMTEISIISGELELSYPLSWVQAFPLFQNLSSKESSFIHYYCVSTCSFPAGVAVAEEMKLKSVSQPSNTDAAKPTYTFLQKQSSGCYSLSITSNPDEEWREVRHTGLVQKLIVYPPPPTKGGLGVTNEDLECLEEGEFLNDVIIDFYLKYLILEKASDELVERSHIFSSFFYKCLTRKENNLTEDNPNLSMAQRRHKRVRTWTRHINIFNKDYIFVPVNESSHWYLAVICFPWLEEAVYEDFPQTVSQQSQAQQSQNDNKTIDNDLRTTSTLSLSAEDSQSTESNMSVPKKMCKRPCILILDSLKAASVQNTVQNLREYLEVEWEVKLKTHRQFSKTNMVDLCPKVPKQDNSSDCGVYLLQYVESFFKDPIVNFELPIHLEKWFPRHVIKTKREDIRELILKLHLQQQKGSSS
UniProt O94885: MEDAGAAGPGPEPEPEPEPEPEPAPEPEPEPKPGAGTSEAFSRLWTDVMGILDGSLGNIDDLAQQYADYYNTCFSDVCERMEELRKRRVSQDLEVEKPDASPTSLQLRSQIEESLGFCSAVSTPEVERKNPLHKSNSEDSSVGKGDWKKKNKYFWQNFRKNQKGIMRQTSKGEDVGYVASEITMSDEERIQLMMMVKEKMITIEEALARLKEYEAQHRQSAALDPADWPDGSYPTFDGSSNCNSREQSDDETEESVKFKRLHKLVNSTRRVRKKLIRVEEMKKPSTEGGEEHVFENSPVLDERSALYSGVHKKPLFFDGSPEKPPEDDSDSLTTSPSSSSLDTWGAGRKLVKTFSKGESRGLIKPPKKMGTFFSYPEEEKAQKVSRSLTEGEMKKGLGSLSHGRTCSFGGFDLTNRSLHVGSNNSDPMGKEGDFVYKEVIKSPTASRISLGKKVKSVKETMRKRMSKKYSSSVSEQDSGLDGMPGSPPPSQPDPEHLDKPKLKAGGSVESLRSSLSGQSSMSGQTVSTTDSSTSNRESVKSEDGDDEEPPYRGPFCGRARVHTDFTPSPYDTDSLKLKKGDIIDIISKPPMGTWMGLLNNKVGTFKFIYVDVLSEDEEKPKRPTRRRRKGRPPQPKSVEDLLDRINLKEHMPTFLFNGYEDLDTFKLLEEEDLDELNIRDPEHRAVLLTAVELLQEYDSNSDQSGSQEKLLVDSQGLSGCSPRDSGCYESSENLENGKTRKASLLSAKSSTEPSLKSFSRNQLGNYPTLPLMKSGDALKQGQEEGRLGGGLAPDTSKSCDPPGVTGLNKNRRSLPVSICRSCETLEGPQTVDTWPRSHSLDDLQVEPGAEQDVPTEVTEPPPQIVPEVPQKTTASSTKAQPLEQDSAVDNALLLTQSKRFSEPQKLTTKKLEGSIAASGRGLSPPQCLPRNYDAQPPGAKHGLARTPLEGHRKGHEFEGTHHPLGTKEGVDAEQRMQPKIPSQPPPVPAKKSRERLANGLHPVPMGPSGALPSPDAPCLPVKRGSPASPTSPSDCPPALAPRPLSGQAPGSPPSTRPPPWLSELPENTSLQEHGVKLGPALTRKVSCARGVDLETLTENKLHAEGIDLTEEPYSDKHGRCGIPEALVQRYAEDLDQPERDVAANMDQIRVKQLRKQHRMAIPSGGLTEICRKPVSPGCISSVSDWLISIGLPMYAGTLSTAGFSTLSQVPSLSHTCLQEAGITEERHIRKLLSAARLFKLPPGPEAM
UniProt Q9P0V3: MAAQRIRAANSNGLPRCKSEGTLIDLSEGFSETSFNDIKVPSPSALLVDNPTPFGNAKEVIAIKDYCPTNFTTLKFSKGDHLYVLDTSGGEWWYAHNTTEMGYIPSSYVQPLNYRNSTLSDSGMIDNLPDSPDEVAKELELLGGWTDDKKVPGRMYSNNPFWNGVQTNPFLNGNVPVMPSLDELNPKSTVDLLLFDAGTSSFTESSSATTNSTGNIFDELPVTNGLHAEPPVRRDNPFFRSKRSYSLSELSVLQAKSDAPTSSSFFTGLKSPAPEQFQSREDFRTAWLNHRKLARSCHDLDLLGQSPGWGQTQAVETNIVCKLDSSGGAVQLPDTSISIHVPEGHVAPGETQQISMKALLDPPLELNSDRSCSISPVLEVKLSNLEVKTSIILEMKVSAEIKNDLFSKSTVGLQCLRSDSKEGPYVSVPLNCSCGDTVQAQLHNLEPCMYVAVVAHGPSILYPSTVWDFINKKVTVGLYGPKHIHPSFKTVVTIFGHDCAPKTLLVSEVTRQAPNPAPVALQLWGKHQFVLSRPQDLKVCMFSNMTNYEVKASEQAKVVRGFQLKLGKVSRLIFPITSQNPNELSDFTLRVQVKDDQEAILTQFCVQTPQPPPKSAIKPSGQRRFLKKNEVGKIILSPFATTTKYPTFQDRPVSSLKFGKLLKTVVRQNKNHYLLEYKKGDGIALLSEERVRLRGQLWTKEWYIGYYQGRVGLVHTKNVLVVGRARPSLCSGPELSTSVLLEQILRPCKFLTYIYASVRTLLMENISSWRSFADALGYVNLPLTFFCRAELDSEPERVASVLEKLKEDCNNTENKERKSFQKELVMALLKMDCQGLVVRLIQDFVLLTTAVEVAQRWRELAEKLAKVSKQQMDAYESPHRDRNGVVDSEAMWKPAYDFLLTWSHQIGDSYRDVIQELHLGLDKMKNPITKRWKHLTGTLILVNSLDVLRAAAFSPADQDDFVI
UniProt O43166: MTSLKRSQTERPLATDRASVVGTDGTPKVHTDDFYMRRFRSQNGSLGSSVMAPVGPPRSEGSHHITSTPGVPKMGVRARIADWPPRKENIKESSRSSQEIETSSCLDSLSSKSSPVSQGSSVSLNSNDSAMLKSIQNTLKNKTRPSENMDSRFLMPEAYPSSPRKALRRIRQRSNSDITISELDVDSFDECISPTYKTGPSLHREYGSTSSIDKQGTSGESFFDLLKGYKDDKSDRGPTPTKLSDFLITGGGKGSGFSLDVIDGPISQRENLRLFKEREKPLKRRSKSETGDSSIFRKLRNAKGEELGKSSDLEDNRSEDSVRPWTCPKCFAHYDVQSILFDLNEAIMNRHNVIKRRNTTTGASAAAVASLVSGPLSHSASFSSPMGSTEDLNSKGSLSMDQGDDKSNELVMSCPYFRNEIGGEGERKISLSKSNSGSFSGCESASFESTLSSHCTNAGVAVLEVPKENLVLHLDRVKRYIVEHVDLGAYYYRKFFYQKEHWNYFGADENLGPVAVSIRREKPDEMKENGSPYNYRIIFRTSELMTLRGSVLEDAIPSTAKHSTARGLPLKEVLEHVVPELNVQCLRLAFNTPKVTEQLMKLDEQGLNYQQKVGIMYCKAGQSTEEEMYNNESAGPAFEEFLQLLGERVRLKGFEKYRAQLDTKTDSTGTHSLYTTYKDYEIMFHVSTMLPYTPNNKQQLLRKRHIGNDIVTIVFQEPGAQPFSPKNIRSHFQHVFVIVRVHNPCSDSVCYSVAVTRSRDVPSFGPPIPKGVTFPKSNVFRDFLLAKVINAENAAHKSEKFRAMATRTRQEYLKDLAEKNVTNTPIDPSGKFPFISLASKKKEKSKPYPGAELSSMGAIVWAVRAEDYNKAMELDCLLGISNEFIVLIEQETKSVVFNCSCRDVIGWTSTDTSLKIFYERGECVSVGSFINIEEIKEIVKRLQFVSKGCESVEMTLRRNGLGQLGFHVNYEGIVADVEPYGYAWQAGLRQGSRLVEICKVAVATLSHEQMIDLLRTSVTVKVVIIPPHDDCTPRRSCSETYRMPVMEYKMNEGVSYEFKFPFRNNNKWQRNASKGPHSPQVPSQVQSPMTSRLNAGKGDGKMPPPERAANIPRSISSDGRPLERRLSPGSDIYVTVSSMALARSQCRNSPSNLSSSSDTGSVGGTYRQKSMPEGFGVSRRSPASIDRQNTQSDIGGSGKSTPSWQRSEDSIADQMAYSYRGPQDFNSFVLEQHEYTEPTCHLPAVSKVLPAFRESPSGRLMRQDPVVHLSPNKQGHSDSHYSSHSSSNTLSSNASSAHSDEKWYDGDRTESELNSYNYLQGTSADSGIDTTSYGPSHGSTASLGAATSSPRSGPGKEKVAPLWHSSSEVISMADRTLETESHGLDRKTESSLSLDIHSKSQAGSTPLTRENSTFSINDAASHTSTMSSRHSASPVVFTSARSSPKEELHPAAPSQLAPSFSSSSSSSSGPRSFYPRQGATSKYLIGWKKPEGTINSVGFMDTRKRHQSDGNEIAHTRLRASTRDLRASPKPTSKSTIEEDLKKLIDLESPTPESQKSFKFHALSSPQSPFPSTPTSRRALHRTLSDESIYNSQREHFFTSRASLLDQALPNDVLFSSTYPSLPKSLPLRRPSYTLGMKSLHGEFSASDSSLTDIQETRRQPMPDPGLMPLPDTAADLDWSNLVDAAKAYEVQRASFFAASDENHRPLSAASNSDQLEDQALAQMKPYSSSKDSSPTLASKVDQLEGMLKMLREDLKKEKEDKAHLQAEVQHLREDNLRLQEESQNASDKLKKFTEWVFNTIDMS

Compound: ClCC(=O)N[C@H]1CCCc2ccccc12
Assay: log2 mean competition ratio of IA-DTB cysteine labelling (DMSO/compound) (log2 ratio); higher = stronger cysteine engagement by compound
Conditions: 200 µM; treatment time: 4 h; cell line lysate: HEK293T
Protocol: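 IA-DTB competitive cysteine chemoproteomics in HEK293T RIPA lysate. Lysates were treated with compound 29 or 30 at 50 or 200 µM for 4 h, then IA-DTB (500 µM, 1 h), trypsin-digested, NeutrAvidin-enriched and analysed by diaPASEF. Competition ratio = intensity DMSO / intensity compound (n=4 treated, n=64 DMSO); binding: mean log2 CR ≥ 1 and p ≤ 0.05 plus QC filters. Target is the cysteine site.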

Target | log2 mean competition ratio
SEC62 C82 (UniProt Q99442) | 0.075
SFMBT1 C511 | 0.113
SESN1 C355 (UniProt Q9Y6P5) | -0.0551
SAT2 C14 (UniProt Q96F10) | 0.298
SDCBP C239 (UniProt O00560) | -0.402
SENP7 C980 (UniProt Q9BQF6) | -0.133
SASH1 C927 (UniProt O94885) | -0.0611
SH3BP4 C833 (UniProt Q9P0V3) | 0.0553
SALL3 C603 | -0.182
SIPA1L1 C1037 (UniProt O43166) | 0.0376

Some of the entries so far, with tabs:
Target	log2 mean competition ratio
SH3BP4 C833 (UniProt Q9P0V3)	0.0553
SALL3 C603	-0.182
